Experimental data published in US5840673.

Molecular target: p53 (wild type, pC53-SN3) (UniProt P04637)
Assay: activity in cells
Conditions: luciferase reporter, Saos-2 cells, p53-inducible, protein in cells, only the site is given

Sequence	activity on this sequence (one copy of Box A)	activity on this sequence (one or two copies of Box B)
TCGAGAAAACAAGCCACCAACATGCTTGC (double strand) [IGF-BP3 Box A]	active	
TCGAGAGGAGGGCAAGACCTGCCAAGCCTGGGTA (double strand) [IGF-BP3 Box B]		active
